The values below are quoted from earlier work in US20240184137A1, “CONTACT LENSES AND METHODS OF MAKING CONTACT LENSES” (University of Florida Research Foundation, Inc., priority 2021, published 2024).

The conditions of this series: ACUVUE OASYS lenses loaded with 30% VE, prior research; cited from earlier work.

As for `C[C@@H]1C[C@H]2[C@@H]3CCC4=CC(=O)C=C[C@]4(C)[C@@]3(F)[C@@H](O)C[C@]2(C)[C@@]1(O)C(=O)COP(=O)(O)O` [DXP, dexamethasone sodium phosphate], the Release duration entry is recorded as “about three”.
